Among the data in US20230330254A1, “ANTI-GLP1R ANTIBODY-TETHERED DRUG CONJUGATES COMPRISING GLP1 PEPTIDOMIMETICS AND USES THEREOF” (Regeneron Pharmaceuticals, Inc., priority 2022, published 2023) are binding values, retold here.

Amino acid sequences for entries named in this document (tags omitted). A change or cut given only in a name is not applied to a line headed by its entry. Chains listed by the source or under a name are the forms on record and can include a tag or linker. Residues count along the entry.
UniProt P43220, residues 24-463: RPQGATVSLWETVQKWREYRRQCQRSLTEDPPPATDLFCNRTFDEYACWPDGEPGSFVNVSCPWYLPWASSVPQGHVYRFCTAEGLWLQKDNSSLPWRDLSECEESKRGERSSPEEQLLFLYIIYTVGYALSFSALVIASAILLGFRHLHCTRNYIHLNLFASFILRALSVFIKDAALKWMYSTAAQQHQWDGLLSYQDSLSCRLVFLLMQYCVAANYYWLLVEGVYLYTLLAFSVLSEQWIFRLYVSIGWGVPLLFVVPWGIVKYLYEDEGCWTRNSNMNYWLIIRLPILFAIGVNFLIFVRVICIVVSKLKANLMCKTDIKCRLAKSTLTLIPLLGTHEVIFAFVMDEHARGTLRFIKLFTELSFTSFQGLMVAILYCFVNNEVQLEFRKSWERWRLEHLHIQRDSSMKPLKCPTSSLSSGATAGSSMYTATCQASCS
full-length cynomolgus GLP1R on HEK293/CRE-Luc/mfGLP1R cells (F8V479, form named): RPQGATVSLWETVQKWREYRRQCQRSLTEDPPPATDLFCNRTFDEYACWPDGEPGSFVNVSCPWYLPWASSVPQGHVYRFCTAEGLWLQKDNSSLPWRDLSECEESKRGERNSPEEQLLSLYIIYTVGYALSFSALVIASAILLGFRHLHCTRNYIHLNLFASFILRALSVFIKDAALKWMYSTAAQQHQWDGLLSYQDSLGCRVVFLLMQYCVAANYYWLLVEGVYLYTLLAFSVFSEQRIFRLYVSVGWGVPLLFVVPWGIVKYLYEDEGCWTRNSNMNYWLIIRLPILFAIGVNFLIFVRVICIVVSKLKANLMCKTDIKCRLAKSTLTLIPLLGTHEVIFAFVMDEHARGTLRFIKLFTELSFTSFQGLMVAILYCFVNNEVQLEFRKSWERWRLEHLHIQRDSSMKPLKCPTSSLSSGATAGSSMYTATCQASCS

These are yes or no findings as the source states them, for the method shown. Some entries that bind do so weakly or less than the wild type.

For experiment [1], the target named is N-terminal ectodomain of human GLP1R expressed with a myc-myc hexahistidine tag (human) (UniProt P43220). As to the kind of experiment: SPR. For orientation: In SPR one partner is held on a chip, and binding of the other changes the refractive index at the surface.
Experiment [2] deals with full-length cynomolgus GLP1R on HEK293/CRE-Luc/mfGLP1R cells (cynomolgus) (UniProt F8V479). Briefly: flow cytometry. Background: Flow cytometry measures light scatter and fluorescence of single cells or particles in a stream.
Experiment [3] concerns the target full-length human GLP1R on HEK293/CRE-Luc/hGLP1R cells (human) (UniProt P43220). As to the kind of experiment: flow cytometry.

B1: REGN8051 (antibody, V domains shown)
VH: QVQLVESGGGVGQPGRSLRLSCAASGFTFSRNAMHWVRQAPGKGLEWVAVISYDGSNKHYADSVKGRFTISRDNSKNTLYLEMNSLRVEDTAVYYCAKGGIPFDYWGQGTLVTVSS
VL: DIVMTQSPLSSPVTLGQPASISCRSSQSLVHFDGNTYLSWLHQRPGQPPRLLIYKISNRFSGVPDRFSGSGAGTDFTLKISRVEPEDVGVYYCMHATQFPYTFGQGTKLEIK
In the case of B1, the binding result in experiment [1] and in experiment [2] was “binds” throughout.

B2: REGN8070 (antibody, human IgG4 S228P, kappa, V domains shown)
VH: QVQLVESGGGVGQPGRSLRLSCAASGFTFSRNAMHWVRQAPGKGLEWVAVISYDGSNKHYADSVKGRFTISRDNSKNTLYLEMNSLRVEDTAVYYCAKGGIPFDYWGQGTLVTVSS
VL: DIVMTQSPLSSPVTLGQPASISCRSSQSLVHFDGNTYLSWLHQRPGQPPRLLIYKISNRFSGVPDRFSGSGAGTDFTLKISRVEPEDVGVYYCMHATQFPYTFGQGTKLEIKR
Turning to B2, in experiment [2], the binding entry is “binds”.

B3: REGN8070-M3190 (antibody, human IgG4 S228P, kappa, V domains shown)
VH: QVQLVESGGGVGQPGRSLRLSCAASGFTFSRNAMHWVRQAPGKGLEWVAVISYDGSNKHYADSVKGRFTISRDNSKNTLYLEMNSLRVEDTAVYYCAKGGIPFDYWGQGTLVTVSS
VL: DIVMTQSPLSSPVTLGQPASISCRSSQSLVHFDGNTYLSWLHQRPGQPPRLLIYKISNRFSGVPDRFSGSGAGTDFTLKISRVEPEDVGVYYCMHATQFPYTFGQGTKLEIKR
modifications: linker-payload M3190 (LP11) on Gln 3 of the N-terminal Q-tag LLQGSG
As to B3, the binding result in experiment [1] and in experiment [2] was “binds” throughout.

B4: H2aM30341N (antibody, V domains shown)
VH: QVQLQQWGAGLLKPSETLSLTCAVYGGSFSGYYWSWIRQPPGKGLEWIGEINHAGSTNYNPSLKSRITISVDTSKNQFSLKLSSVTAADTAVYYCARGWYYGSGSYHRNWFDPWGQGTLVTVSS
VL: EIVLTQSPGTLSLSPGERATLSCRASQSVYYSYLAWYQQKPGQAPRLLIYGASNRATGIPDRFSGSGSGTDFTLTISRLEPEDFAVYYCQQYGNSPWTFGQGTKVEIK
For B4, the binding result in experiment [1], in experiment [2] and in experiment [3] was “binds” in each case.

B5: REGN9278 (antibody, human IgG4 S228P, kappa, V domains shown)
VH: QVQLQQWGAGLLKPSETLSLTCAVYGGSFSGYYWSWIRQPPGKGLEWIGEINHAGSTNYNPSLKSRITISVDTSKNQFSLKLSSVTAADTAVYYCARGWYYGSGSYHRNWFDPWGQGTLVTVSS
VL: EIVLTQSPGTLSLSPGERATLSCRASQSVYYSYLAWYQQKPGQAPRLLIYGASNRATGIPDRFSGSGSGTDFTLTISRLEPEDFAVYYCQQYGNSPWTFGQGTKVEIKR
Take B5: the binding entry in experiment [2] was “binds”.

B6: REGN9278-M3190 (antibody, human IgG4 S228P, kappa, V domains shown)
VH: QVQLQQWGAGLLKPSETLSLTCAVYGGSFSGYYWSWIRQPPGKGLEWIGEINHAGSTNYNPSLKSRITISVDTSKNQFSLKLSSVTAADTAVYYCARGWYYGSGSYHRNWFDPWGQGTLVTVSS
VL: EIVLTQSPGTLSLSPGERATLSCRASQSVYYSYLAWYQQKPGQAPRLLIYGASNRATGIPDRFSGSGSGTDFTLTISRLEPEDFAVYYCQQYGNSPWTFGQGTKVEIKR
modifications: linker-payload M3190 (LP11) on Gln 3 of the N-terminal Q-tag LLQGSG
Turning to B6, in experiment [1], the binding result is “binds”.
